Measured values as given in patent US12533444B2, “Mitigation of peri-implantitis by design and stability of bifunctional peptides with antimicrobial properties” (priority 2019, dated 2026).

Assay: Mechanical durability assay (electric toothbrush brushing of functionalized discs)
Settings: one minute

Sequence | bifunctional peptide coating retained after brushing [%]
RPRENRGRERGLGSGGGKWKLWKKIEKWGQGIGAVLKWLTTW [TiBP-AMPA] | 75
RPRENRGRERGLGSGGGGKIIKLKASLKLL [TiBP-GL13K, comparative bifunctional peptide: TiBP, GSGGG spacer, GL13K antimicrobial domain] | 27
